Measurements as given in paper PMC11653473.
These are yes or no findings as the source states them, for the method shown. In cells and extracts the contact can be indirect. These calls come from enrichment with a bait or labelling near it, and not all partners need be listed. Tags and fused reporters may be left off the sequences shown.

Protein sequences, listed by entry. Tags and fused reporters are not part of them.
UniProt P31947: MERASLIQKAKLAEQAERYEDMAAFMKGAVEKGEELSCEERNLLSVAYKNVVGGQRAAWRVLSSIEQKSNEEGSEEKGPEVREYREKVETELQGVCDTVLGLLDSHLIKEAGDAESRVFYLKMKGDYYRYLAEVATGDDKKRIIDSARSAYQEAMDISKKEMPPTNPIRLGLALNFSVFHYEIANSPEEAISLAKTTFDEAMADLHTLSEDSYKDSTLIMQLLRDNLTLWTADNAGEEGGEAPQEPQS

Molecular target: T1, HA-tagged PMEPA1 (prostate transmembrane protein androgen induced 1), exogenous, in AGS cells (human) (UniProt Q969W9)
T1 sequence: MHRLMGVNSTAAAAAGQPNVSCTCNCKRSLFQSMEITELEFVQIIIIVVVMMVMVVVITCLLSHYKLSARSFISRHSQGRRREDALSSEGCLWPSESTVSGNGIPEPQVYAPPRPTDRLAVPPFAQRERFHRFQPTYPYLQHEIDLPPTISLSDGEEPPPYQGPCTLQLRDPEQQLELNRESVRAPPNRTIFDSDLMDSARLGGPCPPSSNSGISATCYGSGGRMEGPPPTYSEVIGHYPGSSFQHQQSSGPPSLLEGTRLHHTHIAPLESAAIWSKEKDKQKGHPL
Assay: affinity purification with mass spectrometry; anti-HA immunoprecipitation from lysates of control and PMEPA1-overexpressing AGS cells; bands excised from the gel, trypsin digest, Orbitrap Exploris 480

With “14-3-3σ, endogenous in gastric cancer cells (MKN-7, AGS) (from UniProt P31947 1-248)” the binding was “binds”.
